From patent US8455460B2, “Cosmetic composition containing one or more compounds of the β-(1,3)-glucuronan or β-(1,3)-glucoglucuronan type” (Greentech, priority 2007, dated 2013)
Some of these results come from one statement about several compounds together.

Experiment: clinical study on human volunteers, daily topical application of cream (cellulite, orange-peel skin)
Assay type: in vivo
Conditions: cream containing 3%, daily topical application for 30 days
Excerpt: The orange-peel skin effect is reduced in 53% of the volunteers (against 27% in the group of volunteers treated with a placebo).

β-(1,3)-D-polyglucuronic acid [β-(1,3)-glucuronan compound]
individuals with a significant decrease in cellulite: more than 63%
